Measured values published in US10857167B2, “Use of oligosaccharide compositions to enhance weight gain” (Children's Hospital Medical Center, priority 2015, dated 2020).
Further values from the same series stand in other lists.

Tested on: distal small bowel gene expression
Test: RNA sequencing / transcriptional analysis of small bowel 56 days after ICR (2′-FL signature response)
Type: in vivo, mouse
Excerpt: Luminal small bowel contents were expressed into AllProtect Tissue Reagent (Qiagen Inc, CA). Bacterial DNA was extracted using the AllPrep DNA/RNA Mini Kit (Qiagen Inc, CA), according to kit instructions and prior to sequencing (described below). Small bowel tissue samples for RNA were placed into RNA Later (Life Technologies, NY). RNA extraction was accomplished following Qiagen RNeasy Plus Kit instruction (Qiagen Inc, CA). All nucleic acid samples were then stored at -80 Celsius until sequenced (described below). Transcriptional analysis was carried out on resected and harvested small bowel samples obtained from operated mice taken to 8 weeks. Murine RNA sequencing libraries were prepared from approximately 1.5 μg RNA using the TruSeq RNA Sample Preparation Kit (Illumina, Calif.) and sequenced using the HiSeq 2000 Sequencing System (Illumina, Calif.) with single-end 50 bp reads. Following removal of primers and barcodes, sequences were aligned to the mm10 genome using reference annotations from UCSC (Rosenbloom et al. (2015) Nucleic acids research 43: […]-681) (n=36,186 entities). Aligned reads were quantified and used to compute reads per kilobase per million mapped reads (RPKM); raw counts were then normalized using the DESeq algorithm and each harvested sample was baselined to its own resected sample. A filter was applied to the data, requiring at least three reads in all samples of at least one of the four experimental conditions (n=14,489 entities). The data discussed in this publication have been deposited in NCBI's Gene Expression Omnibus and are accessible through NCBI Gene Expression Omnibus (GEO) Series accession number GSE72590. Edgar et al. (2002) Nucleic acids research 30: 207-210. In order to characterize the impact of 2'-FL supplementation while accounting for the effect of ileoecal resection, a t-test was applied between resected and harvested samples within control and experimental animals. Significance was set at a p-value of ≤0.05 and a fold change of 3, which generated 2,576 differentially regulated entities across two comparisons. Gene set unions and intersections of the control and experimental gene sets were identified through Venn diagrams. From the master list, the gene list specific to animals supplemented with 2'-FL were removed in order to identify genes differentially regulated only by ICR (n=546 entities); this gene set characterizes the adaptive response. Further, the 2'-FL response (n=2,030 entities) was identified by removing the adaptive response signature described above from the master list, leaving only genes regulated by 2'-FL supplementation after ICR which were not found in the non-supplemented adaptive response. Heatmaps were generated using hierarchical clustering with the Pearson's Centered distance metric and the average linkage rule; both entities and samples were clustered. All genomic analyses described above were performed in Strand NGS (Strand Life Sciences, CA). Gene list functional enrichment was initially discovered using ToppFun, a member of the ToppGene Suite. Chen et al. (2009) Nucleic acids research 37: […]-311. No statistical correction was selected. Gene lists were further analyzed using ClueGO, a plugin for Cytoscape designed to decipher functionally grouped gene ontology and pathway annotation networks. Bindea et al. (2009) Bioinformatics 25: 1091-1093. At the time of data analysis, the annotation files were updated from sources to Jan. 1, 2015. “GO Term Fusion” was enabled to manage ontologic term redundancy and network specificity was set to medium. Results were restricted to pathways with p≤0.05 using Benjamini-Hochberg correction and Kappa scoring was set to 0.4. Biocyc annotations were assigned a rectangle, gene ontology biologic processes were assigned an ellipse, and […] annotations were assigned a diamond shape. No meaning was assigned to size or color. […]

## C[C@@H]1O[C@@H](O[C@H]2[C@H](O[C@H]3[C@H](O)[C@@H](O)C(O)O[C@@H]3CO)O[C@H](CO)[C@H](O)[C@@H]2O)[C@@H](O)[C@H](O)[C@@H]1O (stereo partly shown) [2′-FL, 2′-fucosyllactose]
Gene Fam65a
  Fold Change (Pre- to Post-op): −6.183
Gene Fam115a
  Fold Change (Pre- to Post-op): −3.095
Gene Fam171a1
  Fold Change (Pre- to Post-op): −3.149
Gene Fam193a
  Fold Change (Pre- to Post-op): −3.61
Gene Fam214a
  Fold Change (Pre- to Post-op): −6.502
Gene Fam222b
  Fold Change (Pre- to Post-op): −3.226
Gene Fam83h
  Fold Change (Pre- to Post-op): −3.01
Gene Fan1
  Fold Change (Pre- to Post-op): −9.33
Gene Farp1
  Fold Change (Pre- to Post-op): −3.578
Gene Farp2
  Fold Change (Pre- to Post-op): −3.49
Gene Fasn
  Fold Change (Pre- to Post-op): −6.481
Gene Fat1
  Fold Change (Pre- to Post-op): −3.132
Gene Fat4
  Fold Change (Pre- to Post-op): −4.299
Gene Fbf1
  Fold Change (Pre- to Post-op): −3.031
Gene Fbrs
  Fold Change (Pre- to Post-op): −3.136
Gene Fbxl7
  Fold Change (Pre- to Post-op): −4.025
Gene Fbxl16
  Fold Change (Pre- to Post-op): −4.107
Gene Fbxo21
  Fold Change (Pre- to Post-op): −5.322
Gene Fbxo32
  Fold Change (Pre- to Post-op): −3.63
Gene Fbxo42
  Fold Change (Pre- to Post-op): −3.632
Gene Fgd1
  Fold Change (Pre- to Post-op): −5.778
Gene Fgfr1
  Fold Change (Pre- to Post-op): −8.59
Gene Fgfr4
  Fold Change (Pre- to Post-op): −4.096
Gene Fhod3
  Fold Change (Pre- to Post-op): −4.424
Gene Filip1
  Fold Change (Pre- to Post-op): −5.647
Gene Fkbp5
  Fold Change (Pre- to Post-op): −5.286
Gene Flii
  Fold Change (Pre- to Post-op): −3.259
Gene Flnb
  Fold Change (Pre- to Post-op): −3.975
Gene Flt4
  Fold Change (Pre- to Post-op): −12.72
Gene Fmnl1
  Fold Change (Pre- to Post-op): −8.99
Gene Fmnl3
  Fold Change (Pre- to Post-op): −3.46
Gene Fnbp1
  Fold Change (Pre- to Post-op): −5.008
Gene Fndc5
  Fold Change (Pre- to Post-op): −3.031
Gene Fosl2
  Fold Change (Pre- to Post-op): −3.45
Gene Foxj2
  Fold Change (Pre- to Post-op): −3.612
Gene Foxk1
  Fold Change (Pre- to Post-op): −6.747
Gene Foxm1
  Fold Change (Pre- to Post-op): −4.731
Gene Foxo4
  Fold Change (Pre- to Post-op): −3.091
Gene Foxo6
  Fold Change (Pre- to Post-op): −5.395
Gene Foxp2
  Fold Change (Pre- to Post-op): −4.375
Gene Foxp4
  Fold Change (Pre- to Post-op): −6.371
Gene Foxq1
  Fold Change (Pre- to Post-op): −7.595
Gene Fras1
  Fold Change (Pre- to Post-op): −9.21
Gene Frmd4a
  Fold Change (Pre- to Post-op): −4.517
Gene Fryl
  Fold Change (Pre- to Post-op): −3.885
Gene Fto
  Fold Change (Pre- to Post-op): −4.423
Gene Fus
  Fold Change (Pre- to Post-op): −3.866
Gene Fyb
  Fold Change (Pre- to Post-op): −3.137
Gene Fzd3
  Fold Change (Pre- to Post-op): −3.334
Gene Gaa
  Fold Change (Pre- to Post-op): −4.848
Gene Gab2
  Fold Change (Pre- to Post-op): −4.213
Gene Galnt15
  Fold Change (Pre- to Post-op): −4.552
Gene Gap43
  Fold Change (Pre- to Post-op): −5.641
Gene Garem
  Fold Change (Pre- to Post-op): −5.411
Gene Gbf1
  Fold Change (Pre- to Post-op): −3.378
Gene Gbp5
  Fold Change (Pre- to Post-op): −6.449
Gene Gch1
  Fold Change (Pre- to Post-op): 3.039
Gene Gdnf
  Fold Change (Pre- to Post-op): −7.825
Gene Gfod1
  Fold Change (Pre- to Post-op): −3.385
Gene Ggn
  Fold Change (Pre- to Post-op): −4.607
Gene Glb1l2
  Fold Change (Pre- to Post-op): −7.893
Gene Glg1
  Fold Change (Pre- to Post-op): −6.464
Gene Gli1
  Fold Change (Pre- to Post-op): −3.057
Gene Gli2
  Fold Change (Pre- to Post-op): −5.305
Gene Gli3
  Fold Change (Pre- to Post-op): −6.732
Gene Glp2r
  Fold Change (Pre- to Post-op): −3.022
Gene Glt1d1
  Fold Change (Pre- to Post-op): −4.749
Gene Gltscr1l
  Fold Change (Pre- to Post-op): −3.621
Gene Glul
  Fold Change (Pre- to Post-op): −3.246
Gene Gm608
  Fold Change (Pre- to Post-op): −3.514
Gene Gm1966
  Fold Change (Pre- to Post-op): −4.588
Gene Gm2115
  Fold Change (Pre- to Post-op): −4.127
Gene Gm2366
  Fold Change (Pre- to Post-op): −5.055
Gene Gm3230
  Fold Change (Pre- to Post-op): −3.179
Gene Gm4759
  Fold Change (Pre- to Post-op): −7.921
Gene Gm4951
  Fold Change (Pre- to Post-op): −4.905
Gene Gm4980
  Fold Change (Pre- to Post-op): −3.971
Gene Gm7694
  Fold Change (Pre- to Post-op): −4.867
Gene Gm8995
  Fold Change (Pre- to Post-op): −6.994
Gene Gm11201
  Fold Change (Pre- to Post-op): −5.056
Gene Gm11747
  Fold Change (Pre- to Post-op): −5.457
Gene Gm15800
  Fold Change (Pre- to Post-op): −4.229
Gene Gm17644
  Fold Change (Pre- to Post-op): −3.931
Gene Gm19361
  Fold Change (Pre- to Post-op): −4.125
Gene Gm21553
  Fold Change (Pre- to Post-op): −3.449
Gene Gna12
  Fold Change (Pre- to Post-op): −3.382
Gene Gnao1
  Fold Change (Pre- to Post-op): −7.71
Gene Gns
  Fold Change (Pre- to Post-op): −3.391
Gene Golga3
  Fold Change (Pre- to Post-op): −4.67
Gene Golga4
  Fold Change (Pre- to Post-op): −4.088
Gene Gpam
  Fold Change (Pre- to Post-op): −5.656
Gene Gpr20
  Fold Change (Pre- to Post-op): −4.851
Gene Gpr31c
  Fold Change (Pre- to Post-op): −3.595
Gene Gpr56
  Fold Change (Pre- to Post-op): −4.503
Gene Gpr65
  Fold Change (Pre- to Post-op): −6.495
Gene Gpr81
  Fold Change (Pre- to Post-op): −4.653
Gene Gpr116
  Fold Change (Pre- to Post-op): −5.068
Gene Gpr126
  Fold Change (Pre- to Post-op): −3.625
Gene Gpr132
  Fold Change (Pre- to Post-op): −6.545
Gene Gprc5b
  Fold Change (Pre- to Post-op): −4.245
Gene Gprc5c
  Fold Change (Pre- to Post-op): −3.814
Gene Grasp
  Fold Change (Pre- to Post-op): −4.781
Gene Grb10
  Fold Change (Pre- to Post-op): −3.711
Gene Grik3
  Fold Change (Pre- to Post-op): −7.557
Gene Grik5
  Fold Change (Pre- to Post-op): −4.426
Gene Grip2
  Fold Change (Pre- to Post-op): −4.564
Gene Grlf1
  Fold Change (Pre- to Post-op): −4.231
Gene Grn
  Fold Change (Pre- to Post-op): −3.472
Gene Grrp1
  Fold Change (Pre- to Post-op): −3.025
Gene Gse1
  Fold Change (Pre- to Post-op): −6.244
Gene Gsk3b
  Fold Change (Pre- to Post-op): −3.251
Gene Gsn
  Fold Change (Pre- to Post-op): −3.517
Gene Gtf3c1
  Fold Change (Pre- to Post-op): −3.322
Gene Gtse1
  Fold Change (Pre- to Post-op): −3.42
Gene H1fx
  Fold Change (Pre- to Post-op): −5.556
Gene Hap1
  Fold Change (Pre- to Post-op): −4.123
Gene Havcr2
  Fold Change (Pre- to Post-op): −3.277
Gene Hcfc1
  Fold Change (Pre- to Post-op): −3.483
Gene Hcn2
  Fold Change (Pre- to Post-op): −8.181
Gene Hdac4
  Fold Change (Pre- to Post-op): −6.464
Gene Hdac7
  Fold Change (Pre- to Post-op): −3.892
